Results are given in words; binding and its absence hold for the method and conditions named. Some entries that bind do so weakly or less than the wild type. For some assays here: Sequences can lack the tags named with a protein. Values belong to the binder of their own block, whether it stands above or below them.
Key:
[1] = target: T1, Repressor activator protein 1 (Rap1), human, full-length recombinant with N-terminal His6-tag (human), Q9NYB0; experiment: electrophoresis at mild denaturing conditions; data not shown; multimer distribution of bacterially produced proteins compared with proteins expressed in insect cells; settings: remark: other sources report otherwise
T1 chain: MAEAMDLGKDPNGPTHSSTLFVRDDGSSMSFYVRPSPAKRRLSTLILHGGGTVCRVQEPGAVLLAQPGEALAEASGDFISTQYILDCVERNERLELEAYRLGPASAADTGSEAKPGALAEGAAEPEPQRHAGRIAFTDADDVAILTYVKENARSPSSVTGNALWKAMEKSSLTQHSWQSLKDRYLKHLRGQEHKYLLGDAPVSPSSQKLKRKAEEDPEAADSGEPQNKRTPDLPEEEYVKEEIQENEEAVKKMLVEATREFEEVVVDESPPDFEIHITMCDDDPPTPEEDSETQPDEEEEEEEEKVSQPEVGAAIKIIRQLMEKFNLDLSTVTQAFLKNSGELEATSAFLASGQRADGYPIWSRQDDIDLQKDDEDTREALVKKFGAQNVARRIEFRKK

[2] = target: T2, Rap1 expressed in insect cells (human), Q9NYB0; experiment: as above; settings: remark: other sources report otherwise
T2 chain: T1 chain

[3] = target: Telomeric Repeat binding Factor 2 (TRF2), human, full-length recombinant with N-terminal His6-tag (human) (UniProt Q15554); experiment: SPR; Rap1 allowed to bind to immobilized TRF2; ProteOn (BioRad), GLC and NLC sensor chips, PBST; detailed conditions in Supplementary Data; both purified
[4] = target: T3, Telomeric Repeat binding Factor 2 (TRF2), human, full-length recombinant with N-terminal His6-tag (human), Q15554; experiment: electrophoresis at mild denaturing conditions; data not shown; multimer distribution of bacterially produced proteins compared with proteins expressed in insect cells; settings: remark: other sources report otherwise
T3 chain: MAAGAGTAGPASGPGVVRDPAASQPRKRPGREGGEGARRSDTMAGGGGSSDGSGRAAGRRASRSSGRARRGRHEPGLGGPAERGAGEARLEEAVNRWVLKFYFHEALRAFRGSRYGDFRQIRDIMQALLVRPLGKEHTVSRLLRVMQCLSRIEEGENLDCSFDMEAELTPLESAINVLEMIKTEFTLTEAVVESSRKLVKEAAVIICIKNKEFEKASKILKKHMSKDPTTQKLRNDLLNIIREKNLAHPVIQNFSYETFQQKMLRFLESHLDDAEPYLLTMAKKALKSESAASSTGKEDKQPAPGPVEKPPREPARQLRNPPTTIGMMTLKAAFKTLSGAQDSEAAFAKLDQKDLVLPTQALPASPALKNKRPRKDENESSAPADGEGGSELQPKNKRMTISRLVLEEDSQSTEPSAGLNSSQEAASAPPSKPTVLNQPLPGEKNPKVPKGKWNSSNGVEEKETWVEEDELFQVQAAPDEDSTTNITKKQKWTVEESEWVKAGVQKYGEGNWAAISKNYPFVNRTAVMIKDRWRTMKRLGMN

[5] = target: T4, TRF2 produced in insect cells (human), Q15554; experiment: as above; settings: remark: other sources report otherwise
T4 chain: T3 chain

B1: Repressor activator protein 1 (Rap1), human, full-length recombinant with N-terminal His6-tag, Q9NYB0 1-399 (protein)
chain: T1 chain
binding [1]: binds

B4: Telomeric Repeat binding Factor 2 (TRF2), human, full-length recombinant with N-terminal His6-tag, Q15554 1-542 (protein)
chain: T3 chain
binding [4]: binds

Second part, the binder after the results:

binding [2]: binds
B2: Rap1 expressed in insect cells, Q9NYB0 1-399 (protein)
chain: T1 chain

binding [3]: binds
B3: Repressor activator protein 1 (Rap1), human, full-length recombinant with N-terminal His6-tag (protein, UniProt Q9NYB0 1-399)
chain: T1 chain

binding [5]: binds
B5: TRF2 produced in insect cells, Q15554 1-542 (protein)
chain: T3 chain

Source: publication PMC4357705, “Human Rap1 modulates TRF2 attraction to telomeric DNA”
